Results taken from publication PMC5900052.

Target: BAR11-YC (Saccharothrix yanglingensis Hhs.015)
Test: split reporter; bimolecular fluorescence complementation; BAR11-YC and catalase-YN fusions transiently co-expressed by agroinfiltration in N. benthamiana leaves; YFP seen by laser confocal microscopy; empty vectors YN-1301 and YC-1301 as negative controls

B1: AtCAT2-YN (enzyme, UniProt P25819 1-492)
chain: MDPYKYRPASSYNSPFFTTNSGAPVWNNNSSMTVGPRGPILLEDYHLVEKLANFDRERIPERVVHARGASAKGFFEVTHDISNLTCADFLRAPGVQTPVIVRFSTVIHERGSPETLRDPRGFAVKFYTREGNFDLVGNNFPVFFIRDGMKFPDMVHALKPNPKSHIQENWRILDFFSHHPESLNMFTFLFDDIGIPQDYRHMDGSGVNTYMLINKAGKAHYVKFHWKPTCGVKSLLEEDAIRVGGTNHSHATQDLYDSIAAGNYPEWKLFIQIIDPADEDKFDFDPLDVTKTWPEDILPLQPVGRMVLNKNIDNFFAENEQLAFCPAIIVPGIHYSDDKLLQTRVFSYADTQRHRLGPNYLQLPVNAPKCAHHNNHHEGFMNFMHRDEEVNYFPSRYDQVRHAEKYPTPPAVCSGKRERCIIEKENNFKEPGERYRTFTPERQERFIQRWIDALSDPRITHEIRSIWISYWSQADKSLGQKLASRLNVRPSI
binding: binds

B2: AtCAT3-YN (enzyme, UniProt Q42547 1-492)
chain: MDPYKYRPSSAYNAPFYTTNGGAPVSNNISSLTIGERGPVLLEDYHLIEKVANFTRERIPERVVHARGISAKGFFEVTHDISNLTCADFLRAPGVQTPVIVRFSTVVHERASPETMRDIRGFAVKFYTREGNFDLVGNNTPVFFIRDGIQFPDVVHALKPNPKTNIQEYWRILDYMSHLPESLLTWCWMFDDVGIPQDYRHMEGFGVHTYTLIAKSGKVLFVKFHWKPTCGIKNLTDEEAKVVGGANHSHATKDLHDAIASGNYPEWKLFIQTMDPADEDKFDFDPLDVTKIWPEDILPLQPVGRLVLNRTIDNFFNETEQLAFNPGLVVPGIYYSDDKLLQCRIFAYGDTQRHRLGPNYLQLPVNAPKCAHHNNHHEGFMNFMHRDEEINYYPSKFDPVRCAEKVPTPTNSYTGIRTKCVIKKENNFKQAGDRYRSWAPDRQDRFVKRWVEILSEPRLTHEIRGIWISYWSQADRSLGQKLASRLNVRPSI
binding: binds

These are yes or no findings as the source states them, for the method shown. In cells and extracts the contact can be indirect. Binding calls can cover weak binding; strength is not graded here.
